Measurements as given in PubChem BioAssay AID504467 (National Center for Advancing Translational Sciences (NCATS), 2011).
The whole screen tested about 330,000 compounds, of which about 7,700 (2.3%) were called active. Inconclusive results, whose numbers are uncertain, are shown with a selection of clear calls. Calls come from the whole dose curve; as a rule, active = well fitted inhibition curve with a large enough effect; inconclusive = small, poorly fitted or top-dose-only effect, or effect the other way; inactive = flat fitted curve, though single readings scatter. A potency beside an inconclusive call is a rough fit, not a confirmed value.

Test: qHTS screen for small molecules that inhibit ELG1-dependent DNA repair in human embryonic kidney (HEK293T) cells expressing luciferase-tagged ELG1; note: nearly all actives have a fitted effect of over 55% in size
Settings: HEK293T ELG1-luciferase reporter, luminescence, 16 h, DNA damage induced by 5-fluorouridine; series mostly up to 46.1 µM
Procedure, shortened: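 Luminescence from the luciferase reporter, measured 30 min after ONE-Glo reagent at room temperature, was the read-out. Beforehand, 2,000 cells per well were exposed for 16 hr at 37 °C to 5-fluorouridine together with compound or vehicle.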
Potency is the fitted concentration of half-maximal effect.

Row | Compound | Potency
1 | O=C(NC(=O)N1CCN(c2ccccc2F)CC1)c1ccccc1 | inactive
2 | COc1ccccc1NC(=O)CSc1nnnn1-c1ccccc1F | inactive
3 | CN(C)S(=O)(=O)c1ccc(C(=O)Nc2ccc3c(c2)CCC3)cc1 | inconclusive: 6.51 µM [activator, partial curve, poor fit]
4 | CN(C)CCCN(Cc1cc2cc3c(cc2[nH]c1=O)OCO3)C(=S)Nc1ccccc1 | inactive
5 | COCCN(C(=O)c1oc2ccccc2c1COC)c1c(N)n(CC(C)C)c(=O)[nH]c1=O | inactive
6 | O=C(O)/C(=C\c1ccc(-c2ccc(F)cc2)o1)c1ccccc1 | inactive
7 | CCOc1cc(CNc2ccc(Br)cc2)cc(Br)c1OCC(=O)NC(C)(C)C | inconclusive: 32.6 µM [inhibitor, partial curve, poor fit]
8 | Cc1cc(C(=O)Nc2c(C)nn(Cc3c(Cl)cccc3Cl)c2C)no1 | inactive
9 | O=C(O)CCSc1ccc2ccccc2n1 | inconclusive: 20.6 µM [activator, single point]
10 | Cc1cc(C)cc(NC(=O)CN2CCC(C(=O)c3ccccc3)CC2)c1 | inactive
11 | COc1cc(OC)cc(-c2c(-c3cccs3)c3cc(-c4cc(OC)c(OC)c(OC)c4)ccc3n2C)c1 | inconclusive: 2.31 µM [inhibitor, partial curve]
12 | Cc1cc(O)c(Sc2ncn[nH]2)cc1NS(=O)(=O)c1ccc(Cl)cc1 | inactive
13 | Cc1cc(NC(=O)COC(=O)c2cc(S(=O)(=O)N(C)c3ccccc3)ccc2Cl)no1 | inconclusive: 14.6 µM [inhibitor, partial curve, poor fit]
14 | O=C1/C(=C\c2ccccc2)SC(=S)N1CCC(=O)N1CCCCC1CCO (configuration not stated) | inactive
15 | c1ccc2c(CN3CCSCC3)cccc2c1 | inconclusive: 12.6 µM [activator, partial curve]
16 | CCOC(=O)CNC(=O)OC1CCN2Cc3ccccc3N=C12 (configuration not stated) | inconclusive: 20.6 µM [activator, partial curve, poor fit]
17 | C=CCn1c(SC(C)C(=O)NCc2ccc3c(c2)OCO3)nc2scc(-c3ccccc3)c2c1=O (configuration not stated) | inconclusive: 29.1 µM [inhibitor, single point]
18 | C=CCn1c(SCC(=O)Nc2cc(C)on2)nc2sc(C)c(C)c2c1=O | inactive
19 | CC(=O)Nc1c2c3c(cccc3n(C)c1=O)C(=O)c1ccccc1-2 | inactive
20 | CC(C)(C)C1CCc2c(sc(NC(=O)c3ccncc3)c2C(N)=O)C1 (configuration not stated) | inconclusive: 29.1 µM [inhibitor, single point]
21 | CCc1ccc2nc3c(c(C(=O)O)c2c1)CCC3 | inactive
22 | O=C(CSc1nnc(-c2ccccn2)n1-c1ccc(Cl)cc1)Nc1ccc2c(c1)OCO2 | inconclusive: 29.1 µM [activator, single point]
23 | CCOc1cccc(/C=C/C(=O)O)c1 | inconclusive: 20.6 µM [activator, partial curve, poor fit]
24 | O=C(O)CSc1nc2c(c(=O)[nH]1)CCCC2 | inconclusive: 20.6 µM [activator, partial curve, poor fit]

Row | Compound | Potency
25 | CCOC(=O)C1CCN(CC(=O)Nc2c(C(=O)OC)[nH]c3ccccc23)CC1 | inconclusive: 18.4 µM [inhibitor, single point]
26 | O=C(C1CCCN(Cc2ccccc2Cl)C1)N1CCCCC1 (configuration not stated) | inactive
27 | CCc1c(C)sc(NC(=O)c2cc(-c3ccc(O)cc3)on2)c1C#N | inactive
28 | COc1ccc(CCNc2ncnc3c2oc2ccccc23)cc1OC | active: 16.4 µM
29 | COc1ccccc1NS(=O)(=O)c1cccc(C(=O)NCc2ccncc2)c1 | inactive
30 | CC1=CC(=O)C=C/C1=C(/c1ccc(O)cc1C)c1ccccc1S(=O)(=O)O | inactive
31 | C=CCn1c(=S)[nH]c2sc3c(c2c1=O)CCC3 | inactive
32 | CC(=O)c1c(C)nc(-c2ccc(Cl)cc2)nc1N | inconclusive: 10.3 µM [activator, partial curve]
33 | COc1ccc(C(=O)Cc2ccc(OC)c(OC)c2)cc1 | inconclusive: 8.2 µM [activator, partial curve]
34 | O=C(CSc1nnc(SCc2cccc3ccccc23)s1)N/N=C/C=C/c1ccccc1[N+](=O)[O-] | inconclusive: 18.4 µM [activator, single point]
35 | CCc1ccccc1N1CC(C(=O)Nc2cc(C)on2)CC1=O (configuration not stated) | inactive
36 | CN(CC(=O)Nc1c(Cl)cccc1Cl)C(=O)CCc1nc2sc3c(c2c(=O)[nH]1)CCCC3 | inconclusive: 4.61 µM [inhibitor, single point]
37 | CCS(=O)(=O)N1Cc2ccccc2CC1C(=O)Nc1nnc(C2CC2)s1 (configuration not stated) | inactive
38 | COc1ccccc1NS(=O)(=O)c1cccc(C(=O)N2CC(C)OC(C)C2)c1 (configuration not stated) | inconclusive: 3.26 µM [activator, partial curve, poor fit]
39 | O=C(NCCc1nc2ccccc2[nH]1)C1CCC(=O)N(CCc2cccc(F)c2)C1 (configuration not stated) | inactive
40 | C=CCOc1ccccc1CN1CCN(CCc2ccccc2)C(CCO)C1 (configuration not stated) | inactive
41 | Nc1nnc(SCCN2C(=O)c3ccccc3S2(=O)=O)s1 | inconclusive: 18.4 µM [activator, partial curve, poor fit]
42 | O=C(N/N=C/C1C(c2ccccc2)C1(Cl)Cl)c1cccc(Br)c1 (configuration not stated) | inconclusive: 5.17 µM [activator, partial curve, poor fit]
43 | O=C(Cn1ncc(N2CCCC2)c(Br)c1=O)c1ccc(Cl)cc1 | inconclusive: 20.6 µM [activator, partial curve]
44 | COc1ccc2cnn(CCOc3cc(C)ccc3C(C)C)c(=O)c2c1OC | inconclusive: 25.9 µM [inhibitor, single point]
45 | COc1ccc(C(=O)Nc2ccc([N+](=O)[O-])cn2)c(OC)c1 | inconclusive: 0.517 µM [activator, full curve]
46 | COC(=O)c1cc(NC(=O)Cc2cccs2)cc(C(=O)OC)c1 | inconclusive: 23.1 µM [inhibitor, single point]
47 | CC(=O)C1=C(O)C(=O)N(c2cc(C(C)(C)C)on2)C1c1ccc(Br)cc1 (configuration not stated) | inconclusive: 29.1 µM [inhibitor, single point]
48 | CN(C)Cc1ccc(CNC(=O)COc2ccc3ccccc3c2)cc1 | inconclusive: 20.6 µM [activator, partial curve, poor fit]

Compounds above with a nitro group on carbon (2):
Row | Compound | Potency
34 | O=C(CSc1nnc(SCc2cccc3ccccc23)s1)N/N=C/C=C/c1ccccc1[N+](=O)[O-] | inconclusive: 18.4 µM [activator, single point]
45 | COc1ccc(C(=O)Nc2ccc([N+](=O)[O-])cn2)c(OC)c1 | inconclusive: 0.517 µM [activator, full curve]

Additional compounds follow.

Row | Compound | Potency
49 | O=C(/C=C/c1ccccc1Cl)NC1CCCCC1 | inconclusive: 20.6 µM [activator, partial curve]
50 | COC(=O)c1sccc1NC(=O)NC1CCCCC1 | inconclusive: 14.6 µM [activator, partial curve]
51 | Nc1[nH]n2c(=O)c3c(nc2c1N=Nc1ccccc1)CCCC3 | inconclusive: 1.3 µM [activator, single point]
52 | Cc1ccc(OCC(=O)Nc2ccccc2Sc2ccccc2)c([N+](=O)[O-])n1 | inactive
53 | Cc1cccn2cc(-c3ccc(Cl)cc3)nc12 | inconclusive: 1.03 µM [activator, full curve]
54 | Cc1ccnc(NC(=O)Nc2ccc(F)cc2)c1 | inconclusive: 1.64 µM [activator, full curve]
55 | O=C(N/C(=C/C=C/c1ccccc1)C(=O)N1CCCCC1)c1ccc([N+](=O)[O-])cc1 | active: 23.1 µM
56 | CN(C)CCCNC(=O)c1cc(C(=O)c2ccc(F)cc2)c[nH]1 | inactive
57 | COc1cc(/C=C(\C#N)C(=O)NCc2ccccc2)ccc1OCc1ccc(C(=O)O)cc1 | inconclusive: 20.6 µM [inhibitor, single point]
58 | Cn1cccc1/C=C1\SC(=Nc2ccc(O)cc2)NC1=O | inconclusive: 18.3 µM [activator, partial curve]
59 | COc1cc(CNCCO)cc(Br)c1OCc1ccccc1 | inactive
60 | CCOC(=O)c1cc(NC(=O)c2c(C)noc2C)cc(C(=O)OCC)c1 | inconclusive: 11.6 µM [inhibitor, single point]
61 | COc1ccccc1NC(=O)c1ccc(-c2ccccc2[N+](=O)[O-])o1 | inconclusive: 2.91 µM [activator, single point]
62 | O=C(Nc1ccc(-c2nc3ccccc3o2)cc1)C1CCCO1 (configuration not stated) | inconclusive: 0.58 µM [activator, full curve, poor fit]
63 | CCOc1ccccc1C(=O)N[C@H](C(=O)Nc1nc2c(s1)CCCC2)C(C)C | inconclusive: 29.1 µM [inhibitor, single point]
64 | O=c1[nH]c2ccccc2cc1CN(CC1CCCO1)S(=O)(=O)c1ccccc1 (configuration not stated) | inactive
65 | CCOC(=O)c1[nH]c2ccc(C)cc2c1N | inconclusive: 9.2 µM [activator, partial curve]
66 | CCc1ccc(NC(=O)CSc2ccccn2)cc1 | inconclusive: 25.9 µM [activator, single point]
67 | C/C(=N\NC(=O)c1ccc(COc2ccccc2)cc1)c1ccncc1 | inactive
68 | CCCC(=O)NC(NC1CCS(=O)(=O)C1)C(Cl)(Cl)Cl (configuration not stated) | inconclusive: 23.1 µM [inhibitor, single point]
69 | COc1ccc(-c2nnn(CC(=O)c3c[nH]c4ccccc34)n2)cc1OC | inconclusive: 20.6 µM [inhibitor, single point]
70 | CCN(CC)C(=O)c1[nH]cnc1C(=O)NC1CCN(C(=O)OC(C)(C)C)CC1 | inconclusive: 2.59 µM [activator, full curve, poor fit]
71 | Cc1ccc(C(C)NC(=O)c2ccncc2)c(C)c1 (configuration not stated) | inconclusive: 11.6 µM [inhibitor, partial curve, poor fit]
72 | COC(=O)Nc1ccc2c(c1)Nc1ccccc1CC2 | inconclusive: 31.6 µM [activator, single point]
